According to PubChem BioAssay AID540276 (National Center for Advancing Translational Sciences (NCATS), 2011):
The whole screen tested about 300,000 compounds, of which about 5,400 (1.8%) were called active. The inconclusive results got no clear call from the source; some entries with a clear call stand among them for comparison. The call rests on the fitted dose curve; tested in HEK293 cells. Potencies beside an inconclusive call are fits to weak or partial responses and may not hold up.

Assay: qHTS for inhibitors of binding or entry into cells for Marburg Virus
Settings: Marburg virus pseudotyped entry inhibition, cell reporter; activity change, negative = inhibition: at 37.8 µM (top of the series) unless noted
On the % scale 0 is the no-effect control and ±100 the full control effect; potency means the concentration at half of the fitted maximal effect.

Row | Compound | Potency | activity change, negative = inhibition
1 | Cc1c(Cl)cccc1-c1ccc(C(=O)N2CCN(c3ccc([N+](=O)[O-])cc3)CC2)o1 | inconclusive: 11.2 µM [inhibitor, partial curve, poor fit] | 
2 | Cc1c(C(=O)NCCc2ccc3c(c2)OCCO3)oc2ccccc12 |  | inactive: -3.51%
3 | CC(=O)c1ccc(N=Nc2ccc(N(C)C)cc2)cc1 | inconclusive: 1.26 µM [inhibitor, full curve, poor fit] | 
4 | CC(=O)Nc1cccc(NC(=O)c2ccc([N+](=O)[O-])cc2Cl)c1 |  | inactive: 4.08%
5 | CN(Cc1cccs1)C(=O)CCCc1c[nH]c2ccccc12 | inconclusive: 11.2 µM [inhibitor, partial curve, poor fit] | 
6 | Cc1nnc(NC(=O)c2ccccc2Br)s1 |  | inactive: 13.5%
7 | COc1c(N2CCN(C(=S)Nc3ccccc3F)C(C)C2)c(F)cc2c(=O)c(C(=O)O)cn(C3CC3)c12 (centres undefined) | inconclusive: 3.16 µM [activator, partial curve, poor fit] | 
8 | Cc1cccc(OCc2ccc(-c3nc(C#N)c(N4CCC(C(N)=O)CC4)o3)o2)c1 |  | inactive: 4.61% [at 46.1 µM]
9 | Cc1ccc(C(=O)NC2CCC(C)CC2)s1 (centres undefined) | inconclusive: 35.5 µM [inhibitor, single point] | 
10 | CCOC(=O)CC(c1ccc(N)cc1)n1c(C)ccc1C (centres undefined) | inconclusive: 35.5 µM [inhibitor, partial curve, poor fit] | 
11 | O=C(O)/C=C/C(=O)N1CCN(c2ccccc2F)CC1 | inconclusive: 1.41 µM [activator, partial curve, poor fit] | 
12 | Fc1ccc(NCc2cn3ccccc3n2)cc1 | inconclusive: 2.82 µM [activator, partial curve] | 
13 | CN1CCN(/N=C/c2ccc(Cl)c(Cl)c2)CC1 | inconclusive: 6.31 µM [activator, single point] | 
14 | COc1ccc(OC)c(C(C)NC(=O)c2ccco2)c1 (centres undefined) | inconclusive: 6.51 µM [inhibitor, full curve] | 
15 | COc1nc(N)nc(N2CCOCC2)n1 |  | inactive: 0.544%
16 | Brc1c(-c2ccccc2)nc2n1Cc1ccccc1-2 | inconclusive: 35.5 µM [inhibitor, single point] | 
17 | Cc1ccc(C(=O)N2CCN(c3ccccn3)CC2)cc1Cl |  | inactive: -15% [at 46.1 µM]
18 | CSc1ccccc1NC(=O)COc1ccc(Cl)cc1C |  | inactive: 17%
19 | O=C(Nc1cnccn1)c1ccncc1 |  | inactive: 2.84%
20 | Cc1noc(/C=C/c2ccco2)c1S(=O)(=O)N1CCC(C(=O)Nc2ccc(F)cc2F)CC1 | inconclusive: 2.51 µM [activator, full curve] | 
21 | Cc1cc(=O)oc2cc(OCc3cc4c(cc3Cl)OCO4)ccc12 | inconclusive: 3.98 µM [inhibitor, single point] | 
22 | CC(=O)Nc1ccc(CCc2nc3ccccc3[nH]2)cc1 | inconclusive: 0.631 µM [inhibitor, single point] | 

Retrieved by compound from the entries so far, three records:
Row | Compound | Potency | activity change, negative = inhibition
1 | Cc1c(Cl)cccc1-c1ccc(C(=O)N2CCN(c3ccc([N+](=O)[O-])cc3)CC2)o1 | inconclusive: 11.2 µM [inhibitor, partial curve, poor fit] | 
9 | Cc1ccc(C(=O)NC2CCC(C)CC2)s1 (centres undefined) | inconclusive: 35.5 µM [inhibitor, single point] | 
11 | O=C(O)/C=C/C(=O)N1CCN(c2ccccc2F)CC1 | inconclusive: 1.41 µM [activator, partial curve, poor fit] | 

More records:

Row | Compound | Potency | activity change, negative = inhibition
23 | O=[N+]([O-])c1ccccc1S(=O)(=O)N1CCCC(C(F)(F)F)C1 (centres undefined) | inconclusive: 7.94 µM [inhibitor, partial curve] | 
24 | Cc1ccc([N+](=O)[O-])cc1N/C=C1\CCCCC1=O |  | inactive: -18.2% [at 46.1 µM]
25 | CCOc1ccc(NC(=O)COC(=O)C2(C)CC2(Cl)Cl)c([N+](=O)[O-])c1 (centres undefined) | inconclusive: 20 µM [inhibitor, single point] | 
26 | CCOC(=O)c1cc(-c2ccc(F)cc2)n(CCC(=O)NC2CCN(Cc3ccccc3)CC2)c1C | inconclusive: 25.9 µM [inhibitor, partial curve, poor fit] | 
27 | COc1cccc(C(=O)NC2CCCc3c2cnn3-c2cc(C)cc(C)c2)c1 (centres undefined) | inconclusive: 8.91 µM [inhibitor, partial curve, poor fit] | 
28 | CCC(C)c1ccccc1N1CC(C(=O)Nc2ccccc2N2CCCC2)CC1=O (centres undefined) |  | inactive: -20%
29 | CN(CCc1ccccn1)Cc1ccc(Cl)cc1Cl |  | inactive: 8.57%
30 | Cc1cc(C)c(C(=O)COC(=O)Cn2cnnn2)cc1C |  | inactive: 5.66%
31 | Cc1sc2nc(SCC(=O)NCCO)n(C)c(=O)c2c1C | inconclusive: 3.26 µM [inhibitor, partial curve, poor fit] | 
32 | Nc1c(N(CCC2=CCCCC2)C(=O)c2ccco2)c(=O)[nH]c(=O)n1Cc1ccccc1 | inconclusive: 2.82 µM [inhibitor, partial curve, poor fit] | 
33 | COc1ccc(CCNC(=O)CCc2c(C)nc3cc(-c4ccccc4)nn3c2C)cc1OC | inconclusive: 20 µM [inhibitor, single point] | 
34 | O=C(OCc1ccc(COC(=O)c2ccc(O)cc2)cc1)c1ccc(O)cc1 | inconclusive: 5.62 µM [inhibitor, single point] | 
35 | Nc1cccc(C(=O)OCC(=O)Nc2cccc3c2C(=O)c2ccccc2C3=O)c1 | inconclusive: 0.355 µM [inhibitor, partial curve, poor fit] | 
36 | N#Cc1c(-c2ccccc2)cc(-c2ccccc2)nc1SCCC(=O)O | inconclusive: 7.94 µM [inhibitor, partial curve, poor fit] | 
37 | O=C(CCC1CCCN(C(=O)c2ccsc2)C1)NCc1ccc(F)c(F)c1 (centres undefined) | inconclusive: 3.16 µM [inhibitor, single point] | 
38 | Cc1cccn2c(CN[C@@H]3CCCC[C@H]3c3ccccc3)c(C(=O)N3CCOCC3)nc12 | inconclusive: 3.16 µM [inhibitor, single point] | 
39 | O=S(=O)(Nc1cccc2ncccc12)c1cccs1 | inconclusive: 5.01 µM [inhibitor, full curve, poor fit] | 
40 | Cc1ccc(-c2cc(C(=O)NCc3ccccn3)c3ccccc3n2)cc1 | inconclusive: 10 µM [inhibitor, partial curve, poor fit] | 
41 | CCN1C(=O)c2cccc3c(S(=O)(=O)NCc4cccnc4)ccc1c23 | inconclusive: 12.6 µM [inhibitor, partial curve, poor fit] | 
42 | S=C(NCCCCNC(=S)NCc1ccccc1)NCc1ccccc1 |  | inactive: -3.78% [at 46.1 µM]
43 | Fc1ccccc1Cn1nnc(-c2ccc3c(c2)OCO3)n1 | inconclusive: 11.6 µM [inhibitor, partial curve] | 
44 | COc1ccc(OC)c(CCNC(=O)c2cc3c(-c4ccccc4F)nn(C)c3s2)c1 | inconclusive: 10 µM [inhibitor, single point] | 
